Laboratory results: PMC11645656, “MRGPRX4 mediates phospho-drug associated pruritus in a humanized mouse model” (Science translational medicine, 2024)
Where “and” joins values, the source holds several entries; their conditions need not be identical. Equal values may be shown once. The source gives many values for each of these; only a part stands here.

The chains behind the UniProt entries cited, without tags or fusion partners.
UniProt Q96LA9, whole entry, stated change not applied: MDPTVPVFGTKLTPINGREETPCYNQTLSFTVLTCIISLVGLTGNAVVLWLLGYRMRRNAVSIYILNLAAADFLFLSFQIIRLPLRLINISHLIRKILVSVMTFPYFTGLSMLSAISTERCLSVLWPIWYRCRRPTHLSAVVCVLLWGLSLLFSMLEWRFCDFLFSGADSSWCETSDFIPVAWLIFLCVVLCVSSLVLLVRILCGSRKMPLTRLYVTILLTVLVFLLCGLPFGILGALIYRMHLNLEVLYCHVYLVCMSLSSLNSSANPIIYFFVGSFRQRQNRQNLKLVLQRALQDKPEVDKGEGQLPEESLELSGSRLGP
UniProt Q96LA9, whole entry L83S/Y254A: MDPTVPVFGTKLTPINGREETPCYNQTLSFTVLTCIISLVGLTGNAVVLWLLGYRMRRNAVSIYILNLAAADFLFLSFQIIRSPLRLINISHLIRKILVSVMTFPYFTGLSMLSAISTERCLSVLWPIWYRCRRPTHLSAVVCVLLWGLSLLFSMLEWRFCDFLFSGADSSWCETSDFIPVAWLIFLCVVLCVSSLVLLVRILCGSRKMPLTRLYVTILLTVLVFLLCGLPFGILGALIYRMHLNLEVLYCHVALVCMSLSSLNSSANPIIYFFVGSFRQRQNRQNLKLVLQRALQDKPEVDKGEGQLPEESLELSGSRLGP
UniProt Q96LA9, whole entry L83S/W158A: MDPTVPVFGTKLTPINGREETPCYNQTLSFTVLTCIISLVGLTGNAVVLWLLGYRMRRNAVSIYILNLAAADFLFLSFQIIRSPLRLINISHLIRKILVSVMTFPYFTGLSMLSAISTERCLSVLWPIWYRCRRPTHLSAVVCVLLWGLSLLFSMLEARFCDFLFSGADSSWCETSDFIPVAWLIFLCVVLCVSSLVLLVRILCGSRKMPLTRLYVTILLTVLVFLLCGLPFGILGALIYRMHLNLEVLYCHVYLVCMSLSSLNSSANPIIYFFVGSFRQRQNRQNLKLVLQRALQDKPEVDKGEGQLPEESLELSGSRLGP

Legend:
Type in all cases: cell-based
[1] = target: MRGPRX4 S83L (L83) (Homo sapiens, UniProt Q96LA9); assay: PRESTO-Tango β-arrestin recruitment assay, HTLA cells stably expressing S83L MRGPRX4; conditions: single replicate
Method: HTLA cells, a cell line derived from HEK293 and engineered to stably express a tTA-dependent luciferase reporter and a β-arrestin2-TEV fusion gene, were generously provided by Richard Axel's laboratory. HTLA cells were cultured in growth medium containing 2 μg/ml puromycin and 100 μg/ml hygromycin B in 5% CO2 at 37 °C. Stably MRGPRX4-expressing HTLA cells were generated by transfecting pcDNA3.1(+)-Zeo containing MRGPRX4-Tango construct (either with WT or S83L mutant sequence) into HTLA cells with Lipofectamine 3000 and selecting the successful transfected clones with Zeocin.
HTLA cells stably expressing either WT or S83L MRGPRX4 were seeded in PDL-coated 96-well white clear bottom cell culture plates with DMEM containing 10% FBS, at a density of 35,000 cells per well and were allowed to attach to the bottom of the wells overnight. The next day, growth medium was replaced with 100 μl of serum-free medium containing the tested drugs at various concentrations, and the cells were then incubated at 37°C for 24 h. On the following day, media with drug solutions was removed and 50 μl per well of Bright-Glo™ Reagent from Bright-Glo™ Luciferase Assay System (Promega) was loaded. The plate was incubated at room temperature in the dark for 5 min, and the relative luminescence units were measured using the Flexstation-3 instrument with SoftMax®Pro 7.1 software (Molecular Devices). Dose response curves and EC50s were analyzed as described above.
MRGPRX4 by β-arrestin (Tango) recruitment assay. Data are from three independent experiments,
performed in triplicate, and depicted as mean ± SEM.

[2] = target: T1, MRGPRX4 Y254A (Homo sapiens, UniProt Q96LA9, L83S/Y254A); assay: Calcium mobilization assay (FLIPR), MRGPRX4 Y254A mutant
T1 construct: expressed in transfected cells; host or cells: HEK293T, transient
From the text: (§1) Fig. 3. […] (A) Cryo-EM density map of MRGPRX4-Gq in complex with fospropofol. (B) The density map of fospropofol and R82 of MRGPRX4. (C and D) Key molecular interactions between fospropofol and the hydrophilic (C) and hydrophobic (D) part of the agonist binding pocket of MRGPRX4. Amino acid residues interacting with fospropofol are shown as sticks. Hydrogen bond is shown as cyan dashed lines. […] Data are from at least three independent experiments, each performed in triplicate, and reported as the mean ± SEM. (E) and (F) were collected from the same sets of experiments.
(§2) To generate murine Mrgprs expressing cells, HEK293T cells (ATCC) were seeded on poly-D-lysine coated 96 well plate at 25,000 cells per well one day prior to transfection. HEK293T cells were transiently co-transfected with the mammalian expression plasmids carrying cDNA encoding the murine Mrgpr genes and plasmid inserted with cDNA encoding murine α-subunit of the heterotrimeric G15 protein (Gα15) in triplicates using Lipofectamine LTX reagents (Thermo Scientific). To generate WT, S83L, and alanine mutant MRGPRX4-expressing cells, HEK293T cells were seeded on poly-D-lysine coated 384 well plate at 12,000 cells per well one day prior to transfection. Mammalian expression plasmids pLX304 (vector from Addgene) carrying different MRGPRX4 coding sequences were transiently transfected into HEK293T cells in triplicates with Lipofectamine LTX reagents (Thermo Scientific). Intracellular calcium mobilization assays were performed after one day of transfection. Murine Mrgprs tested include Mrgpra1, Mrgpra2a, Mrgpra2b, Mrgpra3, Mrgpra4, Mrgpra6, Mrgpra9, Mrgpra10, Mrgpra11, Mrgpra12, Mrgpra14, Mrgprb5, Mrgprb6, Mrgprb10, Mrgprb11, and Mrgprc11. WT and mutant MRGPRX4 constructs tested include WT, S83L, R82A, R86A, R95A, W158A, Y250A, and Y254A.
(§3) To generate MRGPRX4 mutant constructs, site-directed mutagenesis was performed using Q5® Site-Directed Mutagenesis Kit (New England Biolabs). The primers were designed by the NEBaseChanger tool, with forward primers spanning designated mutated sequence corresponding to the desired amino acid substitutions. The plasmids with WT MRGPRX4 sequence served as the templates for polymerase chain reaction (PCR) amplification with Q5 high-fidelity polymerase and respective primer pairs according to the manufacturer’s conditions. Then, the linear PCR products underwent phosphorylation, ligation, and simultaneous degradation of template DNA by incubating them with a KLD enzyme mix consisting of T4 polynucleotide kinase, T4 DNA ligase, and DpnI at room temperature for 5 min. Subsequently, the mutated circular plasmids were transformed into NEB 5-alpha competent E. coli by heat-shock method, and the successfully transformed bacteria were selected on LB plates with selection antibiotics. The next day, the transformant colonies were picked, expanded in LB broth containing selection antibiotics overnight. Plasmids were isolated using QIAprep Spin Miniprep Kit (Qiagen) and subjected to sequencing to confirm the mutation.

[3] = target: T2, MRGPRX4 W158A (Homo sapiens, UniProt Q96LA9, L83S/W158A); assay: Calcium mobilization assay (FLIPR), MRGPRX4 W158A mutant
T2 construct: expressed in transfected cells; host or cells: HEK293T, transient
From the text: as §1, §2, §3

O=C1NC(c2ccccc2)(c2ccccc2)C(=O)N1COP(=O)(O)O [Fosphenytoin]
fig. S7 response (raw signal), concentration-response ([1]; 3.91e-6 M): 16189.8 and 18368.9 and 14754.9 and 7940.14 and 9488.78 and 17786.7 and 16725.6 and 16301.1 | fig. S7 response (raw signal), concentration-response ([1]; 7.81e-6 M): 31267.6 and 23364.7 and 9967.06 and 14972.3 and 21528.8 and 27388.6 and 23521.5 and 22191.5 | fig. S7 response (raw signal), concentration-response ([1]; 1.56e-5 M): 54620.8 and 55257.1 and 68081.9 and 18104.1 and 21454.6 and 13510.6 and 39603.3 and 42888 and 40258.8 | fig. S7 response (raw signal), concentration-response ([1]; 3.13e-5 M): 198387 and 180205 and 220454 and 39021.7 and 31915.3 and 32986.9 and 96507.5 and 89824.8 and 100978 | fig. S7 response (raw signal), concentration-response ([1]; 6.25e-5 M): 644734 and 659539 and 647956 and 87801.9 and 74073.9 and 87746.9 and 239726 and 229383 and 201212 | fig. S7 response (raw signal), concentration-response ([1]; 0.00025 M): 2309244 and 2438974 and 2260938 and 524727 and 460757 and 480250 and 1001078 and 966214 and 954440 | fig. S7 response (raw signal), concentration-response ([1]; 0.0005 M): 3094672 and 3169559 and 2824560 and 915447 and 870388 and 886744 and 1465791 and 1447165 and 1478274 | fig. S7 response (raw signal), concentration-response ([1]; 0.001 M): 3194927 and 3202975 and 3421887 and 1059050 and 1086825 and 1067548 and 1850734 and 1628158 and 1470142 | fig. S7 response (raw signal), concentration-response ([1]; 0.002 M): 3749873 and 3571246 and 3372208 and 1358962 and 1203034 and 1504302 and 1686569 and 1838795 and 1612874 | fig. S7 response (raw signal), concentration-response ([1]; 0.004 M): 2851998 and 2998820 and 3134679 and 1258459 and 1272732 and 1356268 and 1569674 and 1612970 and 1391824 | Calcium mobilization response, dose-response replicate data (Fig. 3E and 3F) ([2]; concentration 188 pM): 6.613 | Calcium mobilization response, dose-response replicate data (Fig. 3E and 3F) ([2]; concentration 1.69e-9 M): 15.5304 | Calcium mobilization response, dose-response replicate data (Fig. 3E and 3F) ([2]; concentration 5.08e-9 M): 15.3074 | Calcium mobilization response, dose-response replicate data (Fig. 3E and 3F) ([2]; concentration 1.52e-8 M): 18.8742 | Calcium mobilization response, dose-response replicate data (Fig. 3E and 3F) ([2]; concentration 4.57e-8 M): 20.2118 | Calcium mobilization response, dose-response replicate data (Fig. 3E and 3F) ([2]; concentration 1.37e-7 M): 24.0015 and 19.0972 | Calcium mobilization response, dose-response replicate data (Fig. 3E and 3F) ([2]; concentration 4.12e-7 M): 12.6324 and 22.2181 | Calcium mobilization response, dose-response replicate data (Fig. 3E and 3F) ([2]; concentration 1.23e-6 M): 20.8805 | Calcium mobilization response, dose-response replicate data (Fig. 3E and 3F) ([2]; concentration 3.7e-6 M): 16.645 | Calcium mobilization response, dose-response replicate data (Fig. 3E and 3F) ([2]; concentration 1.11e-5 M): 18.2055 | Calcium mobilization response, dose-response replicate data (Fig. 3E and 3F) ([2]; concentration 3.33e-5 M): 11.2948 | Calcium mobilization response, dose-response replicate data (Fig. 3E and 3F) ([2]; concentration 0.0001 M): 7.282 | Calcium mobilization response, dose-response replicate data (Fig. 3E and 3F) ([3]; concentration 188 pM): -0.1089 and -4.401 and 5.901 and 5.348 and 4.242 and 0.2972 and 7.4308 and 6.093 | Calcium mobilization response, dose-response replicate data (Fig. 3E and 3F) ([3]; concentration 565 pM): 11.1143 and 3.521 and 5.901 and 8.668 and 4.756 and 4.31 and 5.202 | Calcium mobilization response, dose-response replicate data (Fig. 3E and 3F) ([3]; concentration 1.69e-9 M): 3.521 and -4.731 and 9.774 and 6.455 and 3.688 and 2.7494 and 7.654 and 7.4308 | Calcium mobilization response, dose-response replicate data (Fig. 3E and 3F) ([3]; concentration 5.08e-9 M): 5.172 and 2.861 and 4.795 and 8.668 and -0.1486 and 7.4308 and 5.424 | Calcium mobilization response, dose-response replicate data (Fig. 3E and 3F) ([3]; concentration 1.52e-8 M): 4.5118 and 16.7264 and 4.795 and 9.221 and 4.979 and 11.8893 and 7.208 | Calcium mobilization response, dose-response replicate data (Fig. 3E and 3F) ([3]; concentration 4.57e-8 M): 4.182 and 9.134 and 6.455 and 5.901 and 1.635 and 8.991 and 6.985 | Calcium mobilization response, dose-response replicate data (Fig. 3E and 3F) ([3]; concentration 1.37e-7 M): 5.172 and -0.1089 and 13.6468 and 9.221 and 4.795 and 2.081 and 6.985 and 8.1 | Calcium mobilization response, dose-response replicate data (Fig. 3E and 3F) ([3]; concentration 4.12e-7 M): 0.8804 and 6.493 and 6.455 and 11.4338 and 4.795 and 0.5202 and 6.985 | Calcium mobilization response, dose-response replicate data (Fig. 3E and 3F) ([3]; concentration 1.23e-6 M): 0.2202 and -3.41 and 6.455 and 3.688 and 5.901 and -0.3715 and 8.3225 and 5.202 | Calcium mobilization response, dose-response replicate data (Fig. 3E and 3F) ([3]; concentration 3.7e-6 M): -9.352 and -10.6729 and 3.688 and 12.5403 and 5.901 and 3.641 and 4.756 and 8.768 | Calcium mobilization response, dose-response replicate data (Fig. 3E and 3F) ([3]; concentration 1.11e-5 M): -9.683 and -8.362 and 3.135 and 5.901 and 4.242 and -0.5945 and 8.545 and 5.87 | Calcium mobilization response, dose-response replicate data (Fig. 3E and 3F) ([3]; concentration 3.33e-5 M): -13.644 and -8.362 and 0.9221 and 7.008 and -1.263 and 7.654 and 5.202 | Calcium mobilization response, dose-response replicate data (Fig. 3E and 3F) ([3]; concentration 0.0001 M): -17.6055 and -13.9741 and 10.8806 and -2.951 and -0.7377 and -2.155 and 5.647 and 16.5707
